Results are given in words; binding and its absence hold for the method and conditions named. In cells and extracts the contact can be indirect. Binding can be weak; no strength is given. Where a sequence is shown, tags or fusion partners need not be part of it.
Biological target: Aeromonas caviae Maf1 with C-terminal penta-His tag (Maf1-His) (Aeromonas caviae)
Assay: pull-down; in vivo pull-down: Maf1-His expressed in A. caviae (wild-type or neuB mutant) purified with associated proteins from the lysate by nickel-affinity chromatography (20 mM phosphate pH 7.4, 0.5 M NaCl, 50 mM imidazole wash; imidazole step elution); fractions blotted with α-His and α-FlaA/B(−pse)

B1: unglycosylated Aeromonas caviae flagellin FlaB in a neuB mutant (protein, UniProt Q9R9R8 1-305)
chain: MAMYINTNTSSLNAQRNLMNTSKSMDTSYTRLASGLRINSAKDDAAGLQISNRLTSQINGLDQGNRNANDGISLAQTAEGAMDEVTGMLQRMRTLAQQSANGSNSDKDRAALQKEVNQLGAEINRISKDTTFAGTKLLDGNYSGKFQVGADANQTIGFSLSQAGGFSISGIAKAAGTTIDIVSGPAGSVTTATGISLIFVSGSAGGISISTQSKAQAVLAAADAMLEVVDGKRAELGAVQNRLDSTIRNQANISENVSAARSRIRDANFATETANMTKHNILQQAASSILAQANQRPQSALQLLG
Question: How did the binding turn out when B1 was run?
Answer: Its binding is “binds”.
